Experimental data from publication PMC5951852.
Results are given in words; binding and its absence hold for the method and conditions named. In cells and extracts the contact can be indirect. Here binding means that the protein was enriched with, or labelled near, the bait; the list need not be complete.

By UniProt entry, the sequences of proteins in these tests, tags left out.
UniProt O14628: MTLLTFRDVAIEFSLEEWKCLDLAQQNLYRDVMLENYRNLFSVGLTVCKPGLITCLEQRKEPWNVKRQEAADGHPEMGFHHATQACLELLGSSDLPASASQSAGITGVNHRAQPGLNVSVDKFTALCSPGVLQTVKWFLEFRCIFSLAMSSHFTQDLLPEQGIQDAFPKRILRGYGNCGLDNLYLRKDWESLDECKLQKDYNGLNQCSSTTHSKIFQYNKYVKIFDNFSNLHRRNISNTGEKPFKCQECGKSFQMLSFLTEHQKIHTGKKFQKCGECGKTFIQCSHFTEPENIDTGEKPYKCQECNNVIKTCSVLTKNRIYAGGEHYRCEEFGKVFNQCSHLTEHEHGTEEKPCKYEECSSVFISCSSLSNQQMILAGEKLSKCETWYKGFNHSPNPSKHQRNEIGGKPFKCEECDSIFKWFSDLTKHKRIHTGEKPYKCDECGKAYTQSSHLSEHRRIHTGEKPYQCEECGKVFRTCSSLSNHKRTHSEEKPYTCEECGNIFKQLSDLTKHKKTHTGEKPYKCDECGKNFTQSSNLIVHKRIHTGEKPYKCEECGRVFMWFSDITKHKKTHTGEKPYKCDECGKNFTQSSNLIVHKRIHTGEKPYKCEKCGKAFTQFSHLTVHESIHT
UniProt Q8NDW4: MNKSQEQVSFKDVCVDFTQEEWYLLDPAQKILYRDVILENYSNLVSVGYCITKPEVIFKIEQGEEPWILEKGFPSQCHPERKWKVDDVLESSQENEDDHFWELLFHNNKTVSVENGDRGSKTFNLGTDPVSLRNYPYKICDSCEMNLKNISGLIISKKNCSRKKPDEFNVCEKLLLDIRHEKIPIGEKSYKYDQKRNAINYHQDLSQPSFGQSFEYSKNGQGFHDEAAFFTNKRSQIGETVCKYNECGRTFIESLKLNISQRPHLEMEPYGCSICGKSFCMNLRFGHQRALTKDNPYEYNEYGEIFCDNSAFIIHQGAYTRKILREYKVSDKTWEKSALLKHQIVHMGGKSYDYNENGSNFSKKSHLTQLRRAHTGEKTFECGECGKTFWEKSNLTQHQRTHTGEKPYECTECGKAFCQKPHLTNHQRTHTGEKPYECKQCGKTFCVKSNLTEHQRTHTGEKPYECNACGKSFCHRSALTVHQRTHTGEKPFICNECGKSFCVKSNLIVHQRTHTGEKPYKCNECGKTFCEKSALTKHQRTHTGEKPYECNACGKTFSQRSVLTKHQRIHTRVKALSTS
UniProt P17098: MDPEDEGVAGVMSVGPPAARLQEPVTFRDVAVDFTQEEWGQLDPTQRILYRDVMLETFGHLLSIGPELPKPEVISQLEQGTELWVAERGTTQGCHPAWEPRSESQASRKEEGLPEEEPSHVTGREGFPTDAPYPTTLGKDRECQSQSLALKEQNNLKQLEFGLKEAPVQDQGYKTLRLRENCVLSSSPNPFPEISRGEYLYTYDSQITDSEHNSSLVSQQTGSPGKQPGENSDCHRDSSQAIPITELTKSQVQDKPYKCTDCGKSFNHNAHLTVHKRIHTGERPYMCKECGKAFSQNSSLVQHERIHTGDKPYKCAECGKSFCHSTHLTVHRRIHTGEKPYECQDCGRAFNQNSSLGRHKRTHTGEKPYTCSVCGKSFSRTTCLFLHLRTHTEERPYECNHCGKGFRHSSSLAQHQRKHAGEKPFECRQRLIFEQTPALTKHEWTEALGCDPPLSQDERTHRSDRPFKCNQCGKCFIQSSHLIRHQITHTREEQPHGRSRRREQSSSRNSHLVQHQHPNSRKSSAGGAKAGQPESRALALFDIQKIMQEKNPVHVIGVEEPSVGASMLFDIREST

target: p53 (human (endogenous in HCT116 and NCM460)) (UniProt P04637); assay: affinity purification with mass spectrometry; p53 immunoprecipitated from HCT116 p53+/+ cells at 0, 24 and 48 h after glucose starvation, then mass spectrometry

binding | Substance
binds | ZNF195 (from UniProt O14628 1-629)
binds | ZNF248 (from UniProt Q8NDW4 1-579)
binds | ZNF8 (from UniProt P17098 1-575)
